From the supplement of paper PMC6078165

System: MDAMB436
Test: relative JC-1 red fluorescence (viability) vs pre-drug, coculture with fibroblast (fraction); higher = more viable cancer cells
Description: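 JC-1 labelled TNBC cells cocultured 1:1 (1,500 cells each) with CellTrace Violet stained primary or stromal fibroblasts in 384-well plates in FluoroBrite medium, treated with one of 42 anticancer drugs at 0.1, 1, 10 or 100 uM. JC-1 red fluorescence (mitochondrial integrity in cancer cells only) was read by plate reader every 8 h for 72 h. Values are normalised to each well's pre-drug value. The stock of one drug was tenfold lower, so its dose labels may be too high.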

N.N.[Cl][Pt][Cl] [Cisplatin]
relative JC-1 red fluorescence
Conditions	8 h	16 h	24 h	32 h	40 h	48 h	56 h	64 h	72 h
0.1 µM, coculture fibroblast: C12385	0.775	0.69	0.662	0.587	0.54	0.523	0.512	0.51	0.516
0.1 µM, coculture fibroblast: H6013	0.815	0.78	0.78	0.776	0.768	0.804	0.766	0.759	0.718
0.1 µM, coculture fibroblast: H6019	0.7086	0.651	0.63	0.554	0.517	0.5	0.463	0.433	0.411
0.1 µM, coculture fibroblast: H6076	0.709	0.659	0.6664	0.624	0.621	0.599	0.62	0.614	0.612
0.1 µM, coculture fibroblast: H6231	0.7288	0.6522	0.6718	0.5958	0.592	0.5671	0.5702	0.5497	0.542
0.1 µM, coculture fibroblast: HADF	0.821	0.7686	0.7584	0.73	0.732	0.751	0.697	0.694	0.652
0.1 µM, coculture fibroblast: HCFa	0.793	0.753	0.72	0.693	0.671	0.682	0.618	0.611	0.559
0.1 µM, coculture fibroblast: HCPF	0.746	0.685	0.68	0.627	0.62	0.595	0.589	0.579	0.573
0.1 µM, coculture fibroblast: HHSteC	0.815	0.761	0.725	0.68	0.666	0.679	0.615	0.601	0.553
0.1 µM, coculture fibroblast: HMF	0.748	0.6838	0.661	0.611	0.599	0.57	0.5764	0.56903	0.5637
0.1 µM, coculture fibroblast: HPFa	0.847	0.797	0.777	0.729	0.72	0.737	0.655	0.628	0.557
0.1 µM, coculture fibroblast: HUF	0.812	0.711	0.701	0.623	0.574	0.555	0.54	0.531	0.531
0.1 µM, coculture fibroblast: Hs5	0.77241	0.71654	0.6957	0.643	0.629	0.59	0.598	0.575	0.573
0.1 µM, coculture fibroblast: Hs27A	0.786	0.71	0.702	0.679	0.654	0.71	0.625	0.612	0.545
0.1 µM, coculture fibroblast: Hs343T	0.751	0.657	0.617	0.574	0.538	0.513	0.501	0.49	0.483
0.1 µM, coculture fibroblast: WS1	0.754	0.689	0.6794	0.605	0.566	0.558	0.544	0.527	0.525
1 µM, coculture fibroblast: C12385	0.769	0.7053	0.689	0.615	0.575	0.564	0.549	0.547	0.54084
1 µM, coculture fibroblast: H6013	0.799	0.764	0.753	0.746	0.752	0.791	0.762	0.763	0.726
1 µM, coculture fibroblast: H6019	0.746	0.719	0.728	0.667	0.647	0.653	0.626	0.595	0.568
1 µM, coculture fibroblast: H6076	0.733	0.6808	0.695	0.663	0.6578	0.654	0.6866	0.698	0.71
1 µM, coculture fibroblast: H6231	0.6771	0.649	0.713	0.635	0.628	0.617	0.625	0.616	0.605
1 µM, coculture fibroblast: HADF	0.8	0.793	0.7824	0.764	0.78	0.824	0.768	0.769	0.726
1 µM, coculture fibroblast: HCFa	0.767	0.721	0.683	0.649	0.637	0.66	0.599	0.586	0.542
1 µM, coculture fibroblast: HCPF	0.739	0.712	0.7525	0.704	0.712	0.705	0.717	0.715	0.716
1 µM, coculture fibroblast: HHSteC	0.817	0.805	0.795	0.759	0.772	0.788	0.744	0.729	0.681
1 µM, coculture fibroblast: HMF	0.739	0.6934	0.7097	0.66	0.648	0.621	0.627	0.627	0.618
1 µM, coculture fibroblast: HPFa	0.872	0.881	0.879	0.854	0.861	0.89	0.811	0.793	0.724
1 µM, coculture fibroblast: HUF	0.799	0.7236	0.7157	0.6463	0.611	0.5993	0.583	0.584	0.578
1 µM, coculture fibroblast: Hs5	0.729	0.7	0.715	0.668	0.675	0.647	0.682	0.685	0.696
1 µM, coculture fibroblast: Hs27A	0.756	0.732	0.734	0.722	0.735	0.838	0.751	0.768	0.716
1 µM, coculture fibroblast: Hs343T	0.71311	0.6486	0.647	0.605	0.59039	0.57223	0.5749	0.56928	0.5711
1 µM, coculture fibroblast: WS1	0.742	0.67	0.65798	0.583	0.5476	0.5372	0.5234	0.51	0.5044
10 µM, coculture fibroblast: C12385	0.785	0.7208	0.709	0.637	0.599	0.591	0.585	0.577	0.5807
10 µM, coculture fibroblast: H6013	0.849	0.7856	0.7857	0.787	0.793	0.824	0.803	0.797	0.772
10 µM, coculture fibroblast: H6019	0.759	0.705	0.7	0.64	0.618	0.612	0.594	0.592	0.58
10 µM, coculture fibroblast: H6076	0.698	0.592	0.594	0.568	0.569	0.556	0.585	0.592	0.5995
10 µM, coculture fibroblast: H6231	0.658	0.5672	0.597	0.5342	0.517	0.495	0.497	0.481	0.487
10 µM, coculture fibroblast: HADF	0.813	0.788	0.78	0.756	0.7384	0.761	0.711	0.706	0.669
10 µM, coculture fibroblast: HCFa	0.826	0.792	0.781	0.765	0.769	0.797	0.747	0.743	0.698
10 µM, coculture fibroblast: HCPF	0.7231	0.634	0.623	0.557	0.541	0.513	0.498	0.493	0.49
10 µM, coculture fibroblast: HHSteC	0.8273	0.837	0.831	0.802	0.806	0.831	0.784	0.779	0.7339
10 µM, coculture fibroblast: HMF	0.679	0.582	0.574	0.549	0.55	0.529	0.538	0.539	0.542
10 µM, coculture fibroblast: HPFa	0.883	0.841	0.827	0.794	0.792	0.839	0.787	0.775	0.737
10 µM, coculture fibroblast: HUF	0.822	0.744	0.73	0.666	0.62	0.603	0.593	0.594	0.587
10 µM, coculture fibroblast: Hs5	0.79002	0.693	0.67	0.615	0.572	0.525	0.536	0.52	0.519
10 µM, coculture fibroblast: Hs27A	0.827	0.8	0.805	0.805	0.798	0.885	0.814	0.824	0.7703
10 µM, coculture fibroblast: Hs343T	0.716	0.608	0.577	0.535	0.508	0.481	0.466	0.463	0.468
10 µM, coculture fibroblast: WS1	0.771	0.6934	0.6674	0.597	0.5543	0.538	0.524	0.518	0.518
100 µM, coculture fibroblast: C12385	0.78	0.741	0.718	0.644	0.618	0.613	0.608	0.61	0.606
100 µM, coculture fibroblast: H6013	0.8363	0.828	0.814	0.791	0.796	0.822	0.785	0.78	0.739
100 µM, coculture fibroblast: H6019	0.779	0.737	0.7145	0.619	0.582	0.57017	0.5496	0.5307	0.521
100 µM, coculture fibroblast: H6076	0.741	0.6262	0.632	0.586	0.567	0.544	0.544	0.536	0.522
100 µM, coculture fibroblast: H6231	0.667	0.564	0.657	0.578	0.571	0.546	0.548	0.533	0.522
100 µM, coculture fibroblast: HADF	0.844	0.849	0.854	0.83	0.845	0.834	0.828	0.824	0.785
100 µM, coculture fibroblast: HCFa	0.829	0.784	0.738	0.697	0.669	0.685	0.633	0.628	0.578
100 µM, coculture fibroblast: HCPF	0.702	0.658	0.667	0.6102	0.597	0.557	0.554	0.544	0.53
100 µM, coculture fibroblast: HHSteC	0.85	0.887	0.881	0.838	0.847	0.859	0.812	0.797	0.753
100 µM, coculture fibroblast: HMF	0.725	0.5982	0.608	0.57	0.552	0.518	0.515	0.499	0.484
100 µM, coculture fibroblast: HPFa	0.841	0.799	0.775	0.739	0.75	0.786	0.732	0.73	0.697
100 µM, coculture fibroblast: HUF	0.826	0.757	0.728	0.6494	0.602	0.588	0.576	0.57	0.568
100 µM, coculture fibroblast: Hs5	0.729	0.689	0.656	0.599	0.5757	0.54	0.5472	0.527	0.519
100 µM, coculture fibroblast: Hs27A	0.874	0.833	0.81	0.778	0.7698	0.839	0.772	0.771	0.712
100 µM, coculture fibroblast: Hs343T	0.668	0.621	0.627	0.579	0.576	0.55	0.555	0.558	0.565
100 µM, coculture fibroblast: WS1	0.7594	0.705	0.672	0.58	0.534	0.512	0.502	0.489	0.489

Values are relative to the signal before dosing, not to a vehicle control; the signal also falls without drug.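 Labels refer to human fibroblasts, largely primary: uterine (C12385, HUF), lung (H6013), bone (Hs27A), adrenal (HADF), skin (WS1), plus mammary HMF and breast cancer-associated Hs343T. Cancer lines are basal-like or mesenchymal-like triple-negative breast cancer. The paper counts as hits responses shifting over 3x the replicate standard deviation. The tissue of the other fibroblasts is not given here.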
